Data taken from the supplement of paper PMC6331611.
± gives the standard deviation of the averaged measurements. The full ranking holds about 1,600 compounds; the median of “normalized growth (OD600, IQM-normalized) in LPM” is about 1, and the lowest 2% start at about 0.014. This is one part of the list.

Each compound was assayed on Salmonella enterica serovar Typhimurium SL1344 (assay: normalized growth (OD600, IQM-normalized) in LPM (fraction of plate interquartile mean); higher = more bacterial growth (less inhibition)). Conditions: LPM pH 5.8; 10 µM; 16 h.

Compound	normalized growth
O=C(NCCCN1CCOCC1)c1ccc(Cl)cc1	1.02 ± 0.093
COc1cc(CNC(=O)CCCC/C=C/C(C)C)ccc1O	0.913 ± 0.12
C[C@]12CC[C@@H]3c4ccc(O)cc4C[C@@H](CCCCCCCCC[S+]([O-])CCCC(F)(F)C(F)(F)F)[C@H]3[C@@H]1CC[C@@H]2O (stereo not given in full)	0.902 ± 0.026
O=C(CCCl)NCCc1ccccc1	0.985 ± 0.086
CC(=O)Nc1nnc(S(N)(=O)=O)s1	1.11 ± 0.014
CC(=O)Nc1c(I)cc(I)c(C(=O)O)c1I	0.949 ± 0.12
Cc1cc2cc3c(C)cc(=O)oc3c(C)c2o1	0.94 ± 0.069
CC(C)Oc1ccc2c(=O)c(-c3ccccc3)coc2c1	1.1 ± 0.058
CCCCOc1cc(C(=O)OCCN(CC)CC)ccc1N	1.16 ± 0.043
C[N+](C)(C)CC(O)CC(=O)[O-] (stereo not given)	1.05 ± 0.048
CCCCC(CC)COC(=O)CC(C(=O)OCC(CC)CCCC)S(=O)(=O)O (stereo not given)	1 ± 0.029
C[C@H]1C[C@H]2[C@@H]3CCC4=CC(=O)C=C[C@]4(C)[C@@]3(F)[C@@H](O)C[C@]2(C)[C@@]1(O)C(=O)COP(=O)(O)O	1.12 ± 0.015
Nc1ncnc2c1ncn2[C@@H]1O[C@H](CO)[C@@H](O)[C@@H]1O	0.895 ± 0.014
C[C@@](Cc1ccc(O)c(O)c1)(NN)C(=O)O	0.973 ± 0.049
CCOc1nc2cccc(C(=O)O)c2n1Cc1ccc(-c2ccccc2-c2nnn[nH]2)cc1	1 ± 0.06
CC[C@H](C)[C@H](N)C(=O)O	1.03 ± 0.033
Oc1c(Cl)cc(Cl)c2cccnc12	0.0401 ± 0.014
c1ccc(-c2ccc(C(c3ccccc3)n3ccnc3)cc2)cc1 (stereo not given)	1.08 ± 0.03
O=C1CC[C@@H](C(=O)N2CSC[C@H]2C(=O)O)N1	1.1 ± 0.074
CN(C)CCC(c1ccc(Br)cc1)c1ccccn1 (stereo not given)	0.936 ± 0.027
N#Cc1ccc2c(c1)N(CCCN1CCC(O)CC1)c1ccccc1S2	1.09 ± 0.035
CC(C)NCC(O)COc1ccc(CC(N)=O)cc1 (stereo not given)	1.08 ± 0.018

Single values from the results shown:
N#Cc1ccc2c(c1)N(CCCN1CCC(O)CC1)c1ccccc1S2 | normalized growth: 1.09 ± 0.035
C[N+](C)(C)CC(O)CC(=O)[O-] (stereo not given) | normalized growth: 1.05 ± 0.048
Cc1cc2cc3c(C)cc(=O)oc3c(C)c2o1 | normalized growth: 0.94 ± 0.069

Remaining list, next part.

Compound	normalized growth
Cn1c(=O)c2c(ncn2CC2OCCO2)n(C)c1=O	1.11 ± 0.079
COC(=O)Nc1nc2cc(Sc3ccccc3)ccc2[nH]1	0.987 ± 0.024
CC(=O)N(CC(O)CO)c1c(I)c(C(=O)NCC(O)CO)c(I)c(C(=O)NCC(O)CO)c1I (stereo not given)	1.05 ± 0.053
CN1CCN(CC(=O)N2c3ccccc3C(=O)Nc3cccnc32)CC1	0.851 ± 0.067
CC(=O)N(CC(O)CO)c1c(I)c(C(=O)NCCO)c(I)c(C(=O)NCC(O)CO)c1I (stereo not given)	1.05 ± 0.036
Clc1cccc(Cl)c1NC1=NCCN1	1.26 ± 0.077
C[C@]12C=CC(=O)N[C@@H]1CC[C@@H]1[C@@H]2CC[C@]2(C)[C@@H](C(=O)Nc3cc(C(F)(F)F)ccc3C(F)(F)F)CC[C@@H]12	1.034 ± 0.008
CO[C@H]1/C=C/O[C@@]2(C)Oc3c(C)c(O)c4c(O)c(c5c(nc6cc(C)ccn65)c4c3C2=O)NC(=O)/C(C)=C\C=C\[C@H](C)[C@H](O)[C@@H](C)[C@@H](O)[C@@H](C)[C@H](OC(C)=O)[C@@H]1C	0.0104 ± 0.00017
Cc1cc(O)c(C(=O)N[C@@H](C(=O)N[C@@H]2C(=O)N3C(C(=O)O)=C(CSc4nnnn4C)CS[C@H]23)c2ccc(O)cc2)cn1	0.9456 ± 0.0058
CCCNC(=O)NS(=O)(=O)c1ccc(Cl)cc1	1.19 ± 0.22
CCN(CC)C(C)CN1c2ccccc2Sc2ccccc21 (stereo not given)	1.07 ± 0.067
CC(=O)O[C@]1(C(C)=O)CC[C@H]2[C@@H]3C=C(Cl)C4=CC(=O)CC[C@]4(C)[C@H]3CC[C@@]21C	1.04 ± 0.054
CNCCc1ccccn1	1.04 ± 0.031
CC1=C(C)C(=O)C(C(CCCCCC(=O)O)c2ccccc2)=C(C)C1=O (stereo not given)	1.11 ± 0.037
CC1CC2C3CCC4=CC(=O)C=CC4(C)C3(F)C(O)CC2(C)C1C(=O)CO (stereo not given)	0.992 ± 0.02
CC=CC(=O)N(CC)c1ccccc1C	1.11 ± 0.13
CN(C)C(=N)NC(=N)N	0.954 ± 0.016
NCCCCCC(=O)O	0.956 ± 0.018
Nc1nc2c(ncn2COC(CO)CO)c(=O)[nH]1	1.06 ± 0.031
CCCCCCCCCCCCCCCC(=O)OC[C@H](O)[C@H]1OC(=O)C(O)=C1O	0.86 ± 0.02
CCN(CC)C(=O)c1ccc(O)c(OC)c1	0.825 ± 0.086
O=C(c1ccc(F)cc1)C1CCN(CCn2c(=O)[nH]c3ccccc3c2=O)CC1	1.06 ± 0.065

Compound	normalized growth
CC(=O)[C@@]1(O)CC[C@H]2[C@@H]3CCC4=CC(=O)CC[C@]4(C)[C@H]3CC[C@@]21C	0.894 ± 0.077
Clc1ccc2c(c1)CCc1cccnc1C2=C1CCNCC1	1.02 ± 0.024
O=C1NCC2(CCN(CCc3ccccc3)CC2)O1	0.9961 ± 0.0021
CN(C)CCOC(c1ccccc1)c1ccccc1.Cn1c(=O)c2[nH]c(Cl)nc2n(C)c1=O	0.914 ± 0.015
CCCOc1ccc2[nH]c(NC(=O)OC)nc2c1	0.944 ± 0.035
Cc1cc2nc3c(=O)[nH]c(=O)nc-3n(C[C@H](O)[C@H](O)[C@H](O)CO)c2cc1C	0.894 ± 0.044
C[C@@H]1C[C@H]2[C@@H]3CCC4=CC(=O)C=C[C@]4(C)[C@@]3(F)[C@@H](O)C[C@]2(C)[C@@]1(O)C(=O)COP(=O)(O)O	1.01 ± 0.047
CCN(CC)CCNC(C(=O)OCCC(C)C)c1ccccc1 (stereo not given)	1.02 ± 0.046
C(=C\c1ccccc1)/CN1CCN(C(c2ccccc2)c2ccccc2)CC1	1.12 ± 0.019
Cc1c(-c2cnccn2)ssc1=S	0.976 ± 0.024
C[N+](C)(C)CC(=O)O	1.03 ± 0.01
O=C(O)c1ccccc1C(=O)Nc1ccc(S(=O)(=O)Nc2nccs2)cc1	0.919 ± 0.028
OCCN(CCO)c1nc(N2CCCCC2)c2nc(N(CCO)CCO)nc(N3CCCCC3)c2n1	1.02 ± 0.037
CN1CCN(C(c2ccccc2)c2ccccc2)CC1	1.07 ± 0.037
C[C@]12CC[C@@H]3c4ccc(OC(=O)c5ccccc5)cc4CC[C@H]3[C@@H]1CC[C@@H]2O	0.779 ± 0.061
O=C(CCCN1CCN(c2ccccn2)CC1)c1ccc(F)cc1	1.1 ± 0.056
C[C@H](CCC(=O)O)[C@H]1CC[C@H]2[C@@H]3[C@@H](O)C[C@@H]4C[C@H](O)CC[C@]4(C)[C@H]3CC[C@]12C	0.927 ± 0.084
CC1CC(OC(=O)c2ccccc2O)CC(C)(C)C1 (stereo not given)	1.03 ± 0.028
NC[C@@H]1O[C@@H](O[C@H]2[C@H](O)[C@@H](O[C@H]3O[C@H](CO)[C@@H](O)[C@H](N)[C@H]3O)[C@H](N)C[C@@H]2N)[C@@H](O)[C@H](O)[C@H]1O	1.03 ± 0.017
N[C@@H](Cc1cc(I)c(Oc2ccc(O)c(I)c2)c(I)c1)C(=O)O	1.63 ± 0.14
N[C@@H](Cc1cc(I)c(Oc2ccc(O)c(I)c2)c(I)c1)C(=O)O [LIOTHYRONINE (L- isomer) SODIUM]	1.06 ± 0.044
